Results published in US20020151018A1, “Stearoyl-CoA desaturase gene promoter” (priority 2000, published 2002).
At least one structure is not confirmed: it was looked up by name or label, or the drawing left a doubt.

Columns and labels:
human SCD promoter = assay: SCD promoter (c9) dual luciferase reporter assay with fatty acid treatment; assay type: cell-based; details: c9 transfected into HaCaT keratinocytes; 100 uM fatty acid/BSA for 24 hours
mouse SCD1 = details: via a PPRE located in the promoter (Miller and Ntambi, 1996); cited from earlier work
mouse SCD1 mRNA = details: Kurebayashi et al, 1997; Kim and Ntambi, 1999; cited from earlier work

CCCCCCCC/C=C\CCCCCCCC(=O)O [oleate]
SCD promoter activity (ratio of RLU of firefly luciferase to Renilla luciferase) (human SCD promoter): down regulated promoter activity to the same extent

CCOC(=O)C(C)(C)Oc1ccc(Cl)cc1 [clofibrate]
transcription of mouse SCD1 (mouse SCD1): activates transcription of mouse SCD1

CCCCCCCCCCCCCCCCCC(=O)O [stearate]
SCD promoter activity (ratio of RLU of firefly luciferase to Renilla luciferase) (human SCD promoter): unregulated promoter activity

CCCCC/C=C\C/C=C\CCCCCCCC(=O)O [linoleate]
SCD promoter activity (ratio of RLU of firefly luciferase to Renilla luciferase) (human SCD promoter): down regulated promoter activity to the same extent

Cc1c(C)c2c(c(C)c1O)CCC(C)(COc1ccc(CC3SC(=O)NC3=O)cc1)O2 (centres unmarked) [troglitazone]
accumulation of mouse SCD1 mRNA (mouse SCD1 mRNA): suppresses accumulation of mouse SCD1 mRNA
